Results reported in patent US8299034B2, “Nutritional compositions for promotion of bone growth and maintenance of bone health comprising extracts of for example rosemary or caraway” (Nestec S.A., priority 2008, dated 2012).
At least one structure is not confirmed: it was looked up by name or label, or the drawing left a doubt.

Legend:
bone formation = assay: Bone formation bioassays, assay not specified (anabolic potential)
Description: (§1) The following bioassays were used for bone formation analysis • BMP-2 gene reporter assay (high throughput screen) • Alkaline phosphatase in osteoblast cells • Calvaria organ culture in vitro, bone formation • Injection into calvaria in vivo, bone formation.
For example, extracts were screened for bone formation by a high throughput gene reporter assay for BMP-2 followed by an alkaline phosphatase assay and an organ culture model and finally by injection into mice calvaria in vivo. Subfractions of positive extracts and/or pure compounds were further tested for activity.
(§2) The rosemary plant extracts and the pure compounds were tested in an osteoblast/osteoclast co-culture system.

[1] = test system: neonatal murine calvarial bones; assay: Calvaria organ culture in vitro, bone formation; assay type: cell-based; settings: phenolics tested at 1-10 μM
Experimental: as §1
The screening for bone formation was carried out in several stages: • (i) BMP-2 high throughput gene reporter assay of non-hydrolyzed MeOH/H2O extracts (1a) and corresponding glycosidase hydrolyzed extract in ethyl acetate (1b). […] Extracts were assessed in a 4-day in vitro neonatal murine calvarial assay. Bones were incubated with the extracts for the entire 4 days. • (vi) Resorption activity monitored by measuring the amount of type I collagen released in the media as osteoclasts digest bone.

OPG/RANKL = assay: Osteoblast/osteoclast co-culture system, OPG/RANKL regulation; assay type: cell-based
Experimental: as §2

Row | SMILES | anabolic potential (bone formation) | Bone formation in organ culture [1] | regulation of OPG/RANKL (OPG/RANKL)
1 | COc1ccc(-c2cc(=O)c3c(O)cc(O)cc3o2)cc1 [Acacetin] | anabolic potential | Slight | –
2 | COc1cc(O)c2c(=O)cc(-c3ccc(O)cc3)oc2c1 [Genkwanin] | – | Slight | –
3 | O=c1cc(-c2ccc(O)cc2)oc2cc(O)c(O)c(O)c12 [Scutellarein] | – | Yes | activity for regulation of the key cytokines controlling bone remodeling
